# Some of the results follow. Shown are side measurements of this screen, not its main read-out; they come without a call. The list favours compounds with an active or inconclusive main result. Words in brackets tell the shape of the fitted curve; partial curves, single points and poor fits give uncertain potencies.
# Assay: qHTS Assay to Find Inhibitors of Chronic Active B-Cell Receptor Signaling
# Conditions: ABC-DLBCL IkBa-CBG/CBR reporter, luminescence ratio (green luciferase fused to IkBa over red control in TMD8 lymphoma cells), 4 h
# How it was run: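 Compounds up to 46 uM were incubated four hours with TMD8 cells whose green CBG68 luciferase is fused to IkappaBalpha; red CBR luminescence normalised the signal, and concentration-effect curves were fitted to fusion, red and ratio data.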
# [1] = measured here: CBR red luminescence, cell number
# [2] = measured here: IkBa-CBG green luminescence
SMILES,AC50 [1],AC50 [2]
COc1cccc(/C=N/NC(=O)CSc2cccc3cccnc23)c1,"35.5 µM [falling, single point]","25.1 µM [falling, single point]"
Cc1cccc(CN2CCN(C(=O)CCl)CC2)c1,"8.2 µM [falling, partial curve]",–
Cc1ncsc1CCOC(=O)c1ccc(N2CCOCC2)c([N+](=O)[O-])c1,"2.82 µM [rising, full curve]",–
COc1ccc(CCNC(=O)c2c(O)c3ccccc3[nH]c2=O)cc1OC,"12.6 µM [falling, partial curve, poor fit]",–
O=C(C1CCC(CNc2c(N3CCCCC3)c(=O)c2=O)CC1)N1CCN(C2CCCCC2)CC1 (stereo not drawn),"22.4 µM [falling, partial curve, poor fit]",–
Cc1cccc(-c2cc3nc(C)cc(NCCCn4ccnc4)n3n2)c1,"5.8 µM [falling, full curve, poor fit]",–
COC(=O)c1cn(C(=O)c2cccc(Br)c2)c2ccccc12,"35.5 µM [rising, single point]",–
CCOC(=O)c1c(C)nc(C)c(C(=O)OCC)c1-c1ccc(Br)cc1,"11.6 µM [rising, partial curve, poor fit]",–
COc1ccc(-c2c(C)oc3ccc(C)cc23)cc1,"11.2 µM [rising, partial curve, poor fit]",–
Nc1nc(CN2CCc3ccccc3C2)nc(Nc2ccccc2)n1,–,"23.1 µM [falling, single point]"
O=C(CN1CCN(Cc2ccc3c(c2)OCO3)CC1)N1CCc2[nH]c3ccc(F)cc3c2C1,"11.6 µM [falling, partial curve, poor fit]",–
N#CCCNC(=O)Cn1c(COc2ccc(Cl)cc2)nc2ccccc21,"20.6 µM [falling, single point]",–
Cc1cc(Br)ccc1NC(=O)CN(C)C(=O)CNC(=O)Cc1ccccc1,"0.411 µM [falling, full curve, poor fit]",–
Cc1ccc(NC(=O)COC(=O)CN2CCCCCC2=O)c(C)c1,"6.51 µM [rising, single point]",–
C=CS(=O)(=O)N(Cc1ccc(Cl)c(Cl)c1)C[C@@H](O)CO,"3.26 µM [falling, partial curve, poor fit]",–
CS(=O)(=O)N(CC(=O)Nc1ccc(CC#N)cc1)c1ccc(C23CC4CC(CC(C4)C2)C3)cc1,"7.31 µM [falling, partial curve]",–
COC(=O)c1sc2nc(N3CCCCC3)c3c(c2c1N)CCCC3,"2.06 µM [rising, partial curve, poor fit]",–

# 4 neighbouring entries from above, quoted:
SMILES,AC50 [1],AC50 [2]
O=C(C1CCC(CNc2c(N3CCCCC3)c(=O)c2=O)CC1)N1CCN(C2CCCCC2)CC1 (stereo not drawn),"22.4 µM [falling, partial curve, poor fit]",–
Cc1cccc(-c2cc3nc(C)cc(NCCCn4ccnc4)n3n2)c1,"5.8 µM [falling, full curve, poor fit]",–
COC(=O)c1cn(C(=O)c2cccc(Br)c2)c2ccccc12,"35.5 µM [rising, single point]",–
CCOC(=O)c1c(C)nc(C)c(C(=O)OCC)c1-c1ccc(Br)cc1,"11.6 µM [rising, partial curve, poor fit]",–
